Some of the results follow.

By UniProt entry, the sequences of proteins in these tests, tags left out.
UniProt Q0JBA9, entry or part of it: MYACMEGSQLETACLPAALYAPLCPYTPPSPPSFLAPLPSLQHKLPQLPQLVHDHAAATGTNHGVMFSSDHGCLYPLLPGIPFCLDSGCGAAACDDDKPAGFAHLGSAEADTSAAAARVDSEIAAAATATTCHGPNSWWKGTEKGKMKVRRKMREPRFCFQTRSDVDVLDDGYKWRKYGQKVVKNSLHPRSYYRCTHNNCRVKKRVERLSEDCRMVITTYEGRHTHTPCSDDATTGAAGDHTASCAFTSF

The assay addresses OsWRKY34 (Oryza sativa, UniProt Q0JBA9 1-250). Nature of the assay: protein-binding microarray (RPBM); PBS, 2% BSA, 51.3 ng/ul salmon testes DNA, 50 uM zinc acetate, 200 nM TF, 25 C, 1 h; high values mean tight binding. Conditions: protein: recombinant; tags: N-terminal polyhistidine and DsRed monomer fusion (pET32a); label: CyDye5-dUTP incorporated in the synthesized complementary strand; 3' TTTTT single-stranded linker to array surface; dsDNA, one strand shown. The gist of the method:
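Polyhistidine-tagged DsRed fusions of transcription factors, joined at the N-terminus, were expressed in E. coli BL21-CodonPlus and isolated on Ni–NTA. They were incubated at 200 nM for 1 h at 25 °C on a custom Agilent array, double-stranded and BSA-blocked, in PBS with 2% BSA, salmon testes DNA and 50 µM zinc acetate. The binding signal is per-feature fluorescence intensity (arbitrary units) read on an Axon 4000B scanner after washing.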
Take “ATTTCCCGCACTAAAATTTTTCATCCCACATGAAGTATTTCGGAGTCACCTAGTGCAG”: the binding signal was 10200 fluorescence intensity (a.u.). The same measure for “ACCATGAAACATGCATTAGGGTGTTATTTGTCCAGTTTCACGGAGTCACCTAGTGCAG”: 8880 fluorescence intensity (a.u.); for “ACTGTGGCTTCCCGTGTCAACGTTTGACTGTCCGTCTTATCGGAGTCACCTAGTGCAG”: 14000 fluorescence intensity (a.u.); for “CACCACGTCCCAGTCGCTACAGTGCTGTCTTCAACCTCTGCGGAGTCACCTAGTGCAG”: 9030 fluorescence intensity (a.u.). The same measure for “GACGCGCCCCGCCGCCTCGCCTCGCCTCGCCTCGCCATCCCGGAGTCACCTAGTGCAG”: 10400 fluorescence intensity (a.u.); for “GATCGTCCCATATGCATCCCATTGGCCATAGTGCATACTACGGAGTCACCTAGTGCAG”: 10300 fluorescence intensity (a.u.). In the case of “CCGTTGACATTTTATCTAACGTTTGACCATTCGTCTTATTCGGAGTCACCTAGTGCAG”, the binding signal is 15900 fluorescence intensity (a.u.). “TAGGTGGTTGTTTTTTTTTTTTACGGAGGAGGCCTCATGACGGAGTCACCTAGTGCAG”: the binding signal was 9470 fluorescence intensity (a.u.). “TCTGGGCCCTCGCCTTCGAACTCATCGCCGACGACCGCGGCGGAGTCACCTAGTGCAG”: the binding signal is 10900 fluorescence intensity (a.u.).

On to “GGTTTCTCTTGTTTGAGTCGTAGAATTCCTACATTCTTTCCGGAGTCACCTAGTGCAG”, for which the binding signal was 12200 fluorescence intensity (a.u.). The same measure for “GGGGTGTTGTGTCCTTACTTTGTTTTTCAGTGGCAGGATCCGGAGTCACCTAGTGCAG”: 15200 fluorescence intensity (a.u.).

“TAAAGATAATTTTGCCGGTATTTTGGTACGTTAGTTTTCACGGAGTCACCTAGTGCAG”: the binding signal is 8560 fluorescence intensity (a.u.). On to “TCCATGACCAGCCTCACCTTGGCCTCGACCTCCTCTGCCGCGGAGTCACCTAGTGCAG”, for which the binding signal is 8510 fluorescence intensity (a.u.). The same measure for “CGGTATTTACATAGTATGGGGATCGTTGGTACTAAGATGTCGGAGTCACCTAGTGCAG”: 8720 fluorescence intensity (a.u.); for “CCAATGCATTTTTCCTTTTACCATTCATTTCGGCGAACCACGGAGTCACCTAGTGCAG”: 10600 fluorescence intensity (a.u.).

“CGTGGATTCAGACGTTTTTTCCGATTCGCTTTTTTATAAACGGAGTCACCTAGTGCAG”: the binding signal is 14200 fluorescence intensity (a.u.). The same measure for “CTGTACTTCTGTAGTGGTACTACACTACTTACTACCGCTACGGAGTCACCTAGTGCAG”: 8280 fluorescence intensity (a.u.); for “TTCTCGCCGCTTGACTAAATTTGACTCCACCTGTTTGCTTCGGAGTCACCTAGTGCAG”: 10900 fluorescence intensity (a.u.); for “ACCCTTCAACTTTTAACACAATGATTGTTTCGCTTATACTCGGAGTCACCTAGTGCAG”: 9600 fluorescence intensity (a.u.). The same measure for “GGGGTTCAATTTCTAGACAAAGTGAGTGGGTATTTGATTTCGGAGTCACCTAGTGCAG”: 11500 fluorescence intensity (a.u.); for “TTCTTATATGACTCCTTCTATATTTCTAAAAGTGCGGAGCCGGAGTCACCTAGTGCAG”: 8310 fluorescence intensity (a.u.). The same measure for “CTAATAGCTCACCAGTTTGTACTTTTGATCATCTTATCTACGGAGTCACCTAGTGCAG”: 9790 fluorescence intensity (a.u.).

Consider “TGCTTCTTGCTAGCTTCAGCTCCACCGACACCGATCGTTACGGAGTCACCTAGTGCAG”, for which the binding signal was 8390 fluorescence intensity (a.u.). The same measure for “TCCGCTTCTCTCTCTCGTCGCTCTCTCCGTCTTTACCGTCCGGAGTCACCTAGTGCAG”: 9130 fluorescence intensity (a.u.); for “TATTTGCGTTATATTTCCATATAATACTGATTAATCTTATCGGAGTCACCTAGTGCAG”: 8280 fluorescence intensity (a.u.). The same measure for “AGCTGGTTTTGCCAATTTTATTTGCTTGTCATTGGCTCTGCGGAGTCACCTAGTGCAG”: 8320 fluorescence intensity (a.u.). The same measure for “ATGCGCCACTTTGTTTCAAAAGCTTGCATGTAAACACTTTCGGAGTCACCTAGTGCAG”: 8230 fluorescence intensity (a.u.); for “ACTACATCTTTTGACATTTTTTGCTGTGATTCCTGTGTTACGGAGTCACCTAGTGCAG”: 11100 fluorescence intensity (a.u.). Turning to “GTTGGATCACTTTATTCCTGTTTTCTCGATCAGCATTCTTCGGAGTCACCTAGTGCAG”, the binding signal is 14500 fluorescence intensity (a.u.). The same measure for “CTGTTTGGTTAGTTCTGTACTTCTGTTGCAGGTTATATCACGGAGTCACCTAGTGCAG”: 9080 fluorescence intensity (a.u.). The same measure for “ACATGCTCTCTTTTGTCACATCCAGGCTCGATTGTTTCCTCGGAGTCACCTAGTGCAG”: 11300 fluorescence intensity (a.u.).

“GCTAAAATCTTGCTTAATCTTGCCTGTTTCACTAACGATGCGGAGTCACCTAGTGCAG”: the binding signal is 8200 fluorescence intensity (a.u.).

Regarding “TGATGGTTCGGTTTTTTGTGCTTTGTACTTTGCAGTCTTCCGGAGTCACCTAGTGCAG”, the binding signal is 14000 fluorescence intensity (a.u.). As to “CGCCATAAATTCCTTCACTTCAATTTCTTCCTAGCTCAGCCGGAGTCACCTAGTGCAG”, the binding signal was 10700 fluorescence intensity (a.u.).

On to “CTGAATCTGTCAACTCGATCTTCCCTTCTTTCTCTGCAGCCGGAGTCACCTAGTGCAG”, for which the binding signal is 8360 fluorescence intensity (a.u.). The same measure for “GGTTACGGCTTTCTGGTGTTGGGGTTCGTATTTGGGCCTGCGGAGTCACCTAGTGCAG”: 14300 fluorescence intensity (a.u.); for “CCATTGGTCCCGCTACATCGCCTTCTACTTCGTCCAACATCGGAGTCACCTAGTGCAG”: 10600 fluorescence intensity (a.u.). The same measure for “TATACGACGCCGTTGACTTTTTAAGATACGTTAGACCATTCGGAGTCACCTAGTGCAG”: 20300 fluorescence intensity (a.u.); for “CCCTAGCACCTGTTGACAGAAAACCCTAACCCTGCACACCCGGAGTCACCTAGTGCAG”: 8480 fluorescence intensity (a.u.); for “ACACATAAACTTCTAACTTTTCCGTCACATCGTTCCAATTCGGAGTCACCTAGTGCAG”: 8380 fluorescence intensity (a.u.). The same measure for “CTACTTGTCATCGATCATCATGTTACTGTCGTGGTTTGTCCGGAGTCACCTAGTGCAG”: 8560 fluorescence intensity (a.u.). Take “TGGCACCAGCCACCAGCACAGTTTTTTCCACGGCATTCTCCGGAGTCACCTAGTGCAG”: the binding signal is 11100 fluorescence intensity (a.u.).

The values are drawn from publication PMC7819943, “Rice protein-binding microarrays: a tool to detect cis-acting elements near promoter regions in rice”.
